The results in this text go back to paper PMC3879318.

This test has as its target GST-Bmi1 C-terminal deletion mutant (ΔCT) (mouse). The experiment in a line: pull-down; GST-Bmi1 fusions immobilized on glutathione Sepharose 4B incubated with His-tagged necdin (200 ng) at 4°C for 2 hrs in 1 ml of 50 mM Tris buffer pH 8.0, 300 mM KCl, 2 mM 2-mercaptoethanol; bound His-necdin detected by Western blotting; both purified. (In general: A western blot detects proteins with antibodies after separation by electrophoresis.)

Results are given in words; binding and its absence hold for the method and conditions named. A result given as binding can be weak or reduced; the word gives no strength. Sequences can lack the tags named with a protein.

B1: His-tagged necdin (protein, UniProt P25233 1-325)
chain: MSEQSKDLSDPNFAAEVPDCEMQDSDAVPVGIPPPASLAANLAGPPCAPEGPMAAQQASPPPEERIEDVDPKILQQAAEEGRAHQPQSPARPIPAPPAPAQLVQKAHELMWYVLVKDQKRMVLWFPDMVKEVMGSYKKWCRSILRRTSVILARVFGLHLRLTNLHTMEFALVKALSPEELDRVALNNRMPMTGLLLMILSLIYVKGRGAREGAVWNVLRILGLRPWKKHSTFGDVRKIITEEFVQQNYLKYQRVPHIEPPEYEFFWGSRANREITKMQIMEFLARVFKKDPQAWPSRYREALEQARALREANLAAQAPRSSVSED
On to B1, for which the binding result is “binds”.
